According to PubChem BioAssay AID493014 (National Center for Advancing Translational Sciences (NCATS), 2011):
Among all 340,000 compounds or so, about 170 (0.05%) were called active. The inconclusive results got no clear call from the source; some entries with a clear call stand among them for comparison. The call rests on the fitted dose curve; in most records, active means well fitted inhibition curve with a large enough effect in the signal ratio, with a control signal flat (not every such curve was filed as active); inconclusive means small, poorly fitted or top-dose-only effect, or effect the other way, or a change in a side signal; inactive means flat fitted curve, though single readings scatter; the % refers to the signal ratio. Potencies of inconclusive entries are doubtful fits and often do not repeat.
Potency means the concentration at half of the fitted maximal effect.

Test: qHTS Assay to Find Inhibitors of Chronic Active B-Cell Receptor Signaling;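 on activity change, negative = inhibition: plate controls were basal doxycycline-induced cells for no effect and cells given 10 µM MG132 for full effect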
Details: ABC-DLBCL IkBa-CBG/CBR reporter, luminescence ratio (green luciferase fused to IkBa over red control in TMD8 lymphoma cells), 4 h; activity change, negative = inhibition: at 46.1 µM (top of the series)
Procedure, shortened: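 Cell line TMD8 (human ABC DLBCL), stably expressing tet-inducible CBG68-IkBa fusion and CBR; IMDM/0.5% FBS; cpd up to 46 uM; dox induction, 4 h, 37C/5% CO2; dual luminescence; green/red ratio; MG132 control.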
In the case of `NC(=S)Nc1nc2ccccc2[nH]c1=O`, the activity change, negative = inhibition is reported as inconclusive: -14%. With `CCc1cc(C(=O)c2ccc(OC)cc2)c(NC(=O)CN2CCCCC2)s1` the activity change, negative = inhibition was inconclusive: -0.739%. For `Cc1ccccc1N1CCN(C2CCCN(C(=O)c3noc4c3CCCC4)C2)CC1` (stereo unspecified), the activity change, negative = inhibition was inconclusive: -2.38%. For `CNC(=O)NC(=O)C(C)OC(=O)c1ccc(Cl)c(S(=O)(=O)Nc2ccc(F)cc2)c1` (stereo unspecified), the activity change, negative = inhibition was inconclusive: 8.6%. In the case of `O=C(NCc1ccc(Cl)cc1)c1ccc(COCC(F)(F)F)o1`, the activity change, negative = inhibition is reported as inconclusive: 5.14%. In the case of `C=CCn1c(C)cc(-c2csc(NC(=O)C3=COCCO3)n2)c1C`, the “activity change, negative = inhibition” value is reported as inactive: -9.79%. In the case of `Cc1cc(/C=N/NC(=O)c2ccc(O)cc2)c(C)n1C1CC1`, the activity change, negative = inhibition is reported as inconclusive: 309%. In the case of `CCN(CC)C(=O)CSc1nc2c(sc(=S)n2-c2ccccc2)c(=O)n1Cc1ccco1`, the activity change, negative = inhibition is reported as inconclusive: 14.4%. For `NNc1cc(C(=O)O)ccc1Cl`, the activity change, negative = inhibition was inconclusive: 27.5%. In the case of `CCn1cc(C(=O)NCc2ccccc2OC)c(=O)c2cc(S(=O)(=O)N(C)C)ccc21`, the activity change, negative = inhibition is reported as inconclusive: 1.55%. With `CC1CCN(c2ccccc2NC(=O)c2ccc([N+](=O)[O-])o2)CC1` the “activity change, negative = inhibition” value was inactive: -2.12%. In the case of `CCOC(=O)N1CCN(C(=O)c2nc3ccccc3s2)CC1`, the activity change, negative = inhibition is reported as inconclusive: -12.9%. With `CCOC(=O)CSc1nc(C2CC2)nc2ccccc12` the activity change, negative = inhibition was inconclusive: -2.06%. In the case of `COc1ccc(CCNC(=O)CCCc2ccccc2)cc1OC`, the activity change, negative = inhibition is reported as inconclusive: 9.44%. For `CCCOc1ccc(/C=N/Nc2ccccc2[N+](=O)[O-])c(O)c1`, the “activity change, negative = inhibition” value was inactive: 2.31%. For `CC(=O)N1N=C(C)CC1c1ccc(OCc2ccccc2)cc1` (stereo unspecified), the activity change, negative = inhibition was inconclusive: -8.61%. In the case of `Cc1ccc2nc3c(c(N)c2c1)CCN3c1ccccc1`, the activity change, negative = inhibition is reported as inconclusive: 0.807%. In the case of `Cc1cc(C(=O)N2CCCC(CO)(Cc3ccc(F)cc3)C2)c(C)o1` (stereo unspecified), the “activity change, negative = inhibition” value is reported as inactive: -0.758%. With `O=C1/C(=C/c2ccncc2)CCC/C1=C\c1ccncc1` the Potency was inconclusive: 35.5 µM [rising, single point]. In the case of `CCOC(=O)C1=C(C)NC2=C(C(=O)CCC2)C1c1ccc(N(C)C)cc1` (stereo unspecified), the activity change, negative = inhibition is reported as inconclusive: 3.99%. With `CCc1ccc(/C=N/Nc2ncnc3nc[nH]c23)cc1` the Potency was inconclusive: 35.5 µM [falling, single point]. With `COCCCNCCCCOc1ccc(Br)cc1Cl` the activity change, negative = inhibition was inconclusive: -1.87%. In the case of `Cc1ccc(C(=O)NC(=S)Nc2ccccc2C)cc1`, the Potency is reported as inconclusive: 35.5 µM [falling, single point]. With `CC(C)Nc1nc(NC(C)C)nc(N(C)N)n1` the Potency was inconclusive: 32.6 µM [falling, single point]. In the case of `Cc1cc(C)c2cc(C(=O)Nc3ccc(C)c(F)c3)[nH]c2c1`, the activity change, negative = inhibition is reported as inconclusive: 10.5%. With `O=C(O)c1cccc(S(=O)(=O)N2CCOCC2)c1` the activity change, negative = inhibition was inconclusive: 0.479%. With `CS/C(N)=N/C(=S)Nc1cccc(Cl)c1` the Potency was inconclusive: 35.5 µM [falling, single point]. In the case of `CCc1ccc(N=C2NC(=O)/C(=C/c3ccc(OCC(=O)O)c(OC)c3)S2)cc1`, the activity change, negative = inhibition is reported as inconclusive: -1.43%. With `CCOc1cc(C(=O)N(C)CC(=O)Nc2cccc3ccccc23)ccc1OC` the activity change, negative = inhibition was inconclusive: 0.999%. For `Cc1ccccc1SCc1noc(C(=O)NC(C)C)c1C(=O)O`, the Potency was inconclusive: 31.6 µM [rising, single point]. In the case of `CCOc1ccc(CC(=O)NNC(=S)NCCc2ccccc2)cc1`, the “activity change, negative = inhibition” value is reported as inactive: -0.199%. In the case of `c1ccc2c(c1)CCN(c1nc3ccccc3n3cnnc13)C2`, the Potency is reported as inconclusive: 32.6 µM [falling, single point]. For `O=C(CC1CCCC1)Nc1nc2ccccc2[nH]1`, the Potency was inconclusive: 20 µM [falling, single point]. For `O=C(c1cc2c(s1)CCCC2)N1CCN(Cc2ccc3c(c2)OCO3)CC1`, the activity change, negative = inhibition was inconclusive: -0.244%. In the case of `Cc1ccc(N=Nc2c(N)[nH]n3c(=O)cc(C)nc23)cc1`, the “activity change, negative = inhibition” value is reported as inactive: 0.549%. For `COc1ccc(-n2nc3c(N4CCCC(C(=O)NCc5ccc(C)cc5)C4)nnc(C)c3c2C)cc1` (stereo unspecified), the “activity change, negative = inhibition” value was inactive: 0.246%. In the case of `CCn1c(=O)cc(OCC(=O)N(C)C2CCCCC2)c2ccccc21`, the Potency is reported as inconclusive: 29.1 µM [falling, single point]. In the case of `COCc1cccc(N2C(=O)CC(C3C=C(C)C4C(=O)N(c5cccc(COC)c5)C(=O)C4C3)C2=O)c1` (stereo unspecified), the Potency is reported as inconclusive: 35.5 µM [falling, single point]. In the case of `CC(C)(C)c1cc2cccnc2n1Cc1cccc(Cl)c1`, the Potency is reported as inconclusive: 14.6 µM [falling, partial curve]. With `COc1ccc(C(=O)NCC(c2ccco2)N2CCc3ccccc32)c(OC)c1` (stereo unspecified) the Potency was inconclusive: 25.9 µM [rising, partial curve, poor fit]. For `Cc1ccc(/C=N/Nc2cn[nH]c(=O)n2)o1`, the Potency was inconclusive: 3.55 µM [rising, full curve, poor fit].
